From PMC5418573

T1: PolB1 from Sulfolobus acidocaldarius, C-terminally myc and hexahistidine-tagged (Sulfolobus acidocaldarius) (UniProt P95690)
T1 sequence: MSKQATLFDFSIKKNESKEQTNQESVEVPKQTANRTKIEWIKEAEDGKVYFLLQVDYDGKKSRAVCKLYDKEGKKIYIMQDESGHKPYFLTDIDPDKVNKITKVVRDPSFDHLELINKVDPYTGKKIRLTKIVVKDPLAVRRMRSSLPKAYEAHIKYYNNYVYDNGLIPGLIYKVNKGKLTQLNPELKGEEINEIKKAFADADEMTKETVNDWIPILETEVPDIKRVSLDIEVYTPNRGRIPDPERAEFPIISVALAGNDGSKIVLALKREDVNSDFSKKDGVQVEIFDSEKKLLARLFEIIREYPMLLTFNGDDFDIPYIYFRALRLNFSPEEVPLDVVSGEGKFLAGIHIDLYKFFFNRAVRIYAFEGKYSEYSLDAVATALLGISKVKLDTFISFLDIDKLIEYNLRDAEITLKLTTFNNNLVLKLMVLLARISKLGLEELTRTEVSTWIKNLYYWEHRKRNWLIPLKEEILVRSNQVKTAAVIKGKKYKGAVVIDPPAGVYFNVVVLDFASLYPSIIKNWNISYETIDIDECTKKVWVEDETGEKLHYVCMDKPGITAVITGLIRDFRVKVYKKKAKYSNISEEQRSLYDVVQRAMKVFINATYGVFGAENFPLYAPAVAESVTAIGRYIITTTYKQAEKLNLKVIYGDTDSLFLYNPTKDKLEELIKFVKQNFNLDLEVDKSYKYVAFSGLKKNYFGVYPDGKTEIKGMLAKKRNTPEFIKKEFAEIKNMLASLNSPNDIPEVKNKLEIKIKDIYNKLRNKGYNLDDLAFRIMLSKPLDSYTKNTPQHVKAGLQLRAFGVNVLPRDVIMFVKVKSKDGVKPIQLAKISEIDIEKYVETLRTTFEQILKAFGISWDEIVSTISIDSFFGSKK


Target: T1, PolB1 from Sulfolobus acidocaldarius, C-terminally myc and hexahistidine-tagged (Sulfolobus acidocaldarius)
Assay: affinity purification with mass spectrometry; lysate of S. acidocaldarius with chromosomally tagged PolB1 (control strain SacTK) passed through Ni-NTA and MonoQ; gel bands identified by LC-MS/MS

binding	Binder
binds	PolB1-binding protein 1 (PBP1) of Sulfolobus acidocaldarius, product of Saci_0746 (protein, UniProt Q4JAQ7 1-96) MSSTTRWTPKWKTVKIKLNDKDIDICFDEITKLYACPICAPECKKGNTPNYGAYFFSLDDLKEHVLSHNFSYWLRKRKTEEEEEEEEKVKAEEEEE
binds	PolB1-binding protein 2 (PBP2) of Sulfolobus acidocaldarius, product of Saci_1566 (protein, UniProt Q4J8K0 1-70) MPEDELEKAKKYFQNVVSVGEILAVRELKALGISDPEKVINKLIELGFIEKGEGCYNLIRERSKDSARNK

These are yes or no findings as the source states them, for the method shown. In cells and extracts the contact can be indirect. A yes stands for co-enrichment or nearness to the bait. Other partners may have been found. Sequences can lack the tags named with a protein.
